Article doi:10.1101/2020.12.15.422806
Results are given in words; binding and its absence hold for the method and conditions named. In cells and extracts the contact can be indirect. These calls come from enrichment with a bait or labelling near it, and not all partners need be listed.

Sequences of proteins named here, by UniProt entry; tags and fusion partners are left off.
UniProt Q8CJG0: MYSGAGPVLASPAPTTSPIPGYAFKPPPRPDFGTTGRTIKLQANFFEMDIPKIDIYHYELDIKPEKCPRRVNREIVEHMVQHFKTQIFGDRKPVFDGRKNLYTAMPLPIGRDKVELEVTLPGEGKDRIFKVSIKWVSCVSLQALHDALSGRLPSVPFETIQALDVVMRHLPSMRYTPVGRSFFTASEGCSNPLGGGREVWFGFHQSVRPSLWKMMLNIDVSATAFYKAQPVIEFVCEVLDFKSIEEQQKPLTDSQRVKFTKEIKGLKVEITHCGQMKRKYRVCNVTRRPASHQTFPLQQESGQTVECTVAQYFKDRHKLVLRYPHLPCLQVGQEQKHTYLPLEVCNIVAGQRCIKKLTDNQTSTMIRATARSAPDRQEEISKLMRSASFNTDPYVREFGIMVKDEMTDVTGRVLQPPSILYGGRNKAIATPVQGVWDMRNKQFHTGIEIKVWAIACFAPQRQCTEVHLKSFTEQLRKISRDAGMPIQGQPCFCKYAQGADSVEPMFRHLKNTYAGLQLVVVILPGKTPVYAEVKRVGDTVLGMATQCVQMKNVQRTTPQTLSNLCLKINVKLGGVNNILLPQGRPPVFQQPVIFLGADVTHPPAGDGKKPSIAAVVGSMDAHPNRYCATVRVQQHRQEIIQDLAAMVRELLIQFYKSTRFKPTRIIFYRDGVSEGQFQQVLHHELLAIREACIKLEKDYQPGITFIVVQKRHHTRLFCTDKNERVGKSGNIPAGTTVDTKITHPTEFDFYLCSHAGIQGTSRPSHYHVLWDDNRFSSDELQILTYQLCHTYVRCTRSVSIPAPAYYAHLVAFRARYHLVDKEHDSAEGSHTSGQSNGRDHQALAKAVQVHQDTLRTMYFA

B1: CSTF1 (protein, UniProt Q99LC2 1-431)
chain: MYRTKVGLKDRQQLYKLIISQLLYDGYISIANGLINEIKPQSVCAPSEQLLHLIKLGMENDDTAVQYAIGRSDTVAPGTGIDLEFDADVQTMSPEASEYETCYVTSHKGPCRVATYSRDGQLIATGSADASIKILDTERMLAKSAMPIEVMMNETAQQNMENHPVIRTLYDHVDEVTCLAFHPTEQILASGSRDYTLKLFDYSKPSAKRAFKYIQEAEMLRSISFHPSGDFILVGTQHPTLRLYDINTFQCFVSCNPQDQHTDAICSVNYNPSANMYVTGSKDGCIKLWDGVSNRCITTFEKAHDGAEVCSAIFSKNSKYILSSGKDSVAKLWEISTGRTLVRYTGAGLSGRQVHRTQAVFNHTEDYILLPDERTISLCCWDSRTAERRNLLSLGHNNIVRCIVHSPTNPGFMTCSDDFRARFWYRRSTTD
B2: CPSF7 (protein, UniProt Q8BTV2 1-471)
chain: MSEGVDLIDIYADEEFNQDSEFNNTDQIDLYDDVLTAASQPSDDRSSSTEPPPPVRQEPAPKPNNKTPAILYTYSGLRSRRAAVYVGSFSWWTTDQQLIQVIRSIGVYDVVELKFAENRANGQSKGYAEVVVASENSVHKLLELLPGKVLNGEKVDVRPATRQNLSQFEAQARKRECVRVPRGGIPPRAHSRDSSDSADGRATPSENLVPSSARVDKPPSVLPYFNRPPSALPLMGLPPPPIPPPPPLSSSFGVPPPPPGIHYQHLMPPPPRLPPHLAVPPPGAIPPALHLNPAFFPPPNATVGPPPDTYMKASTPYNHHGSRDSGPPPSTVSEAEFEEIMKRNRAISSSAISKAVSGASAGDYSDAIETLLTAIAVIKQSRVANDERCRVLISSLKDCLHGIEAKSYSVGASGSSSRKRHRSRERSPSRSRESSRRHRDLLHNEDRHDDYFQERNREHERHRDRERDRHH
B3: PABPN1 (protein, UniProt Q8CCS6 1-302)
chain: MAAAAAAAAAAGAAGGRGSGPGRRRHLVPGAGGEAGEGDPGGAGDYGNGLESEELEPGELLPEPEPEEEPPRPRAPPGAPGPGPGSGAPGSQEEEEEPGLVEADPGDGAIEDPELEAIKARVREMEEEAEKLKELQNEVEKQMNMSPPPGNAGPVIMSLEEKMEADARSIYVGNVDYGATAEELEAHFHGCGSVNRVTILCDKFSGHPKGFAYIEFSDKESVRTSLALDESLFRGRQIKVIPKRTNRPGISTTDRGFPRSRYRARTTNYNSSRSRFYSGFNSRPRGRIYRGRARATSWYSPY
B4: SRSF3 (protein, UniProt P84104 1-164)
chain: MHRDSCPLDCKVYVGNLGNNGNKTELERAFGYYGPLRSVWVARNPPGFAFVEFEDPRDAADAVRELDGRTLCGCRVRVELSNGEKRSRNRGPPPSWGRRPRDDYRRRSPPPRRRSPRRRSFSRSRSRSLSRDRRRERSLSRERNHKPSRSFSRSRSRSRSNERK
B5: SRSF7 (protein, UniProt Q8BL97 1-267)
chain: MRSSARGRPLQAATAFFLSLFFFLRRFERGFWLWGGDSETKVYVGNLGTGAGKGELERAFSYYGPLRTVWIARNPPGFAFVEFEDPRDAEDAVRGLDGKVICGSRVRVELSTGMPRRSRFDRPPARRPFDPNDRCYECGEKGHYAYDCHRYSRRRRSRSRSRSHSRSRGRRYSRSRSRSRGRRSRSASPRRSRSVSLRRSRSASLRRSRSGSIIGSRYFQSRSRSRSRSRSISRPRSSRSKSRSPSPKRSRSPSGSPHRSASPERMD
B6: CPSF2 (protein, UniProt O35218 1-782)
chain: MTSIIKLTTLSGVQEESALCYLLQVDEFRFLLDCGWDEHFSVDIIDSLRKHVHQIDAVLLSHPDPLHLGALPFAVGKLGLNCAIYATIPVYKMGQMFMYDLYQSRHNTEDFTLFTLDDVDAAFDKIQQLKFSQIVNLKGKGHGLSITPLPAGHMIGGTIWKIVKDGEEEIVYAVDFNHKREIHLNGCSLEMLSRPSLLITDSFNATYVQPRRKQRDEQLLTNVLETLRGDGNVLIAVDTAGRVLELAQLLDQIWRTKDAGLGVYSLALLNNVSYNVVEFSKSQVEWMSDKLMRCFEDKRNNPFQFRHLSLCHGLSDLARVPSPKVVLASQPDLECGFSRDLFIQWCQDPKNSIILTYRTTPGTLARFLIDNPTEKVTEIELRKRVKLEGKELEEYVEKEKLKKEAAKKLEQSKEADIDSSDESDVEEDVDQPSAHKTKHDLMMKGEGSRKGSFFKQAKKSYPMFPAPEERIKWDEYGEIIKPEDFLVPELQATEEEKSKLESGLTNGEEPMDQDLSDVPTKCVSATESIEIKARVTYIDYEGRSDGDSIKKIINQMKPRQLIIVHGPPEASQDLAECCRAFGGKDIKVYMPKLHETVDATSETHIYQVRLKDSLVSSLQFCKAKDAELAWIDGVLDMRVSKVDTGVILEEGELKDDGEDSEMQVDAPSDSSAMAQQKAMKSLFGEDEKELGEETEIIPTLEPLPPHEVPGHQSVFMNEPRLSDFKQVLLREGIQAEFVGGVLVCNNQVAVRRTETGRIGLEGCLCQDFYRIRDLLYEQYAIV
B7: CPSF3 (protein, UniProt Q9QXK7 1-684)
chain: MSAIPAEESDQLLIRPLGAGQEVGRSCIILEFKGRKIMLDCGIHPGLEGMDALPYIDLIDPAEIDLLLISHFHLDHCGALPWFLQKTSFKGRTFMTHATKAIYRWLLSDYVKVSNISADDMLYTETDLEESMDKIETINFHEVKEVAGIKFWCYHAGHVLGAAMFMIEIAGVKLLYTGDFSRQEDRHLMAAEIPNIKPDILIIESTYGTHIHEKREEREARFCNTVHDIVNRGGRGLIPVFALGRAQELLLILDEYWQNHPELHDIPIYYASSLAKKCMAVYQTYVNAMNDKIRKQININNPFVFKHISNLKSMDHFDDIGPSVVMASPGMIQNGLSRELFESWCTDKRNGVIIAGYCVEGTLAKHIMSEPEEITTMSGQKLPLKMSVDYISFSAHTDYQQTSEFIRALKPPHVILVHGEQNEMARLKAALIREYEDNDEVHIEVHNPRNTEAVTLNFRGEKLAKVMGFLADKKPEQGQRVSGILVKRNFNYHILSPCDLSNYTDLAMSTVKQTQAIPYTGPFYLLYYQLQKLTGDVEELEIQEKPALKVFKSITVVQEPGMVVLEWLANPSNDMYADTVTTVILEVQSNPKIRKGAVQKVSKKLEMHVYSKRLEVMLQDIFGEDCVSVKDDSVLSVTVDGKTANINLETRAVECEEGSEDDESLREMVELAAQRLYEALTPVH

Each binder was assayed against Argonaute 2 (mouse (endogenous in NSC-34)) (UniProt Q8CJG0) (assay: affinity purification with mass spectrometry).

binding, binds:
B1
B2
B3
B4
B5
B6
B7
